Reference: patent US20080045506A1 (GLAXO GROUP LIMITED, priority 2004, published 2008)
Structures can show the parent of a compound that is named as a salt. Some entries share one result that the patent states for a list of compounds.

Protein sequences, listed by entry. Tags and fused reporters are not part of them. Lines headed by an entry give the natural chain unless they say otherwise; changes in a name come on top.
UniProt Q9Y5N1: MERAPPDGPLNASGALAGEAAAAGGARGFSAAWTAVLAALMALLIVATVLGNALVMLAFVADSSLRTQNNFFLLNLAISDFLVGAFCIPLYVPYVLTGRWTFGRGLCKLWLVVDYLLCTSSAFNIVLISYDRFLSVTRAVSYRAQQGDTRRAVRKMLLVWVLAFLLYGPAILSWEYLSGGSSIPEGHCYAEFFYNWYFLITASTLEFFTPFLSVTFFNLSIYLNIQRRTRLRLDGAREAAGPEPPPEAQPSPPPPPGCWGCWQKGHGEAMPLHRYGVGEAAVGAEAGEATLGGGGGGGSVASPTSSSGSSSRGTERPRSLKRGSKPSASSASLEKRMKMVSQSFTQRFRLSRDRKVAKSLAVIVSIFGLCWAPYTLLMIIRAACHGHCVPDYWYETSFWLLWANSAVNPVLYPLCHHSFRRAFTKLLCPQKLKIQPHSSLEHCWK
UniProt P35367, whole entry: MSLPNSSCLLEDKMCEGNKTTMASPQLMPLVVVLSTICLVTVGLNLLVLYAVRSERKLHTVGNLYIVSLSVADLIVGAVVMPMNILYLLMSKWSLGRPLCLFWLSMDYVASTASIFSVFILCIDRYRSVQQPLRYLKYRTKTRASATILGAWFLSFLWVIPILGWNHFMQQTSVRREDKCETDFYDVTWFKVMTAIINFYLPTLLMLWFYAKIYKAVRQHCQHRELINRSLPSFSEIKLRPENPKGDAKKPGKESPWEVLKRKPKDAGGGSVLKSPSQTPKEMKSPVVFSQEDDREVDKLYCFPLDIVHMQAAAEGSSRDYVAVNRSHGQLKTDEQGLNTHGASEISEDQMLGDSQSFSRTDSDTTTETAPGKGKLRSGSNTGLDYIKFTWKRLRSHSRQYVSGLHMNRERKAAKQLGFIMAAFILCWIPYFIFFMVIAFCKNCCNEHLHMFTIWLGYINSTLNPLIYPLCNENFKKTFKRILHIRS

How the values were obtained:
[1] = biological target: T1, histamine H3 receptor (Homo sapiens, UniProt Q9Y5N1); assay: Histamine H3 functional antagonist assay (method B); type: biochemical; conditions: [35S]-GTPγS SPA, membrane prepared from cultured H3 cells, histamine at EC80, averages of a number of experiments
T1 construct: expressed in transfected cells; host or cells: CHO K1 cells (pSwitch/pGene GeneSwitch system, mifepristone-induced), clone 3H3; membranes
Text: A membrane preparation containing histamine H3 receptors may be prepared in accordance with the following procedures:
(i) Generation of Histamine H3 Cell Line
DNA encoding the human histamine H3 gene (Huvar, A. et al. (1999) Mol. Pharmacol. 55(6), 1101-1107) was cloned into a holding vector, pcDNA3.1 TOPO (InVitrogen) and its cDNA was isolated from this vector by restriction digestion of plasmid DNA with the enzymes BamH1 and Not-1 and ligated into the inducible expression vector pGene (InVitrogen) digested with the same enzymes. The GeneSwitch™ system (a system where in transgene expression is switched off in the absence of an inducer and switched on in the presence of an inducer) was performed as described in U.S. Pat. Nos. 5,364,791; 5,874,534; and 5,935,934. Ligated DNA was transformed into competent DH5α E. coli host bacterial cells and plated onto Luria Broth (LB) agar containing Zeocin™ (an antibiotic which allows the selection of cells expressing the sh ble gene which is present on pGene and pSwitch) at 50 μg ml^−1. Colonies containing the re-ligated plasmid were identified by restriction analysis. DNA for transfection into mammalian cells was prepared from 250 ml cultures of the host bacterium containing the pGeneH3 plasmid and isolated using a DNA preparation kit (Qiagen Midi-Prep) as per manufacturers guidelines (Qiagen).
CHO K1 cells previously transfected with the pSwitch regulatory plasmid (InVitrogen) were seeded at 2×10e6 cells per T75 flask in Complete Medium, containing Hams F12 (GIBCOBRL, Life Technologies) medium supplemented with 10% v/v dialysed foetal bovine serum, L-glutamine, and hygromycin (100 μg ml^−1), 24 hours prior to use. Plasmid DNA was transfected into the cells using Lipofectamine plus according to the manufacturers guidelines (InVitrogen). 48 hours post transfection cells were placed into complete medium supplemented with 500 μg ml^−1 Zeocin™.
10-14 days post selection 10 nM Mifepristone (InVitrogen), was added to the culture medium to induce the expression of the receptor. 18 hours post induction cells were detached from the flask using ethylenediamine tetra-acetic acid (EDTA; 1:5000; InVitrogen), following several washes with phosphate buffered saline pH 7.4 and resuspended in Sorting Medium containing Minimum Essential Medium (MEM), without phenol red, and supplemented with Earles salts and 3% Foetal Clone II (Hyclone). Approximately 1×10e7 cells were examined for receptor expression by staining with a rabbit polyclonal antibody, 4a, raised against the N-terminal domain of the histamine H3 receptor, incubated on ice for 60 minutes, followed by two washes in sorting medium. Receptor bound antibody was detected by incubation of the cells for 60 minutes on ice with a goat anti rabbit antibody, conjugated with Alexa 488 fluorescence marker (Molecular Probes). Following two further washes with Sorting Medium, cells were filtered through a 50 μm Filcon™ (BD Biosciences) and then analysed on a FACS Vantage SE Flow Cytometer fitted with an Automatic Cell Deposition Unit. Control cells were non-induced cells treated in a similar manner. Positively stained cells were sorted as single cells into 96-well plates, containing Complete Medium containing 500 μg ml^−1 Zeocin™ and allowed to expand before reanalysis for receptor expression via antibody and ligand binding studies. One clone, 3H3, was selected for membrane preparation.
(ii) Membrane Preparation from Cultured Cells
All steps of the protocol are carried out at 4° C. and with pre-cooled reagents. The cell pellet is resuspended in 10 volumes of homogenisation buffer (50 mM N-2-hydroxyethylpiperazine-N′-2-ethanesulfonic acid (HEPES), 1 mM ethylenediamine tetra-acetic acid (EDTA), pH 7.4 with KOH, supplemented with 10e-6M leupeptin (acetyl-leucyl-leucyl-arginal; Sigma L2884), 25 μg/ml bacitracin (Sigma B0125), 1 mM phenylmethylsulfonyl fluoride (PMSF) and 2×10e-6M pepstain A (Sigma)). […]

[2] = biological target: T2, human H1 receptor (Homo sapiens, UniProt P35367); assay: Histamine H1 functional antagonist assay; type: cell-based; conditions: FLIPR, CHO cells expressing human H1 receptor, histamine at EC80; Cheng-Prusoff; averages of a number of experiments
T2 construct: expressed in transfected cells

SMILES | functional pKi (fpKi), antagonism [1] | functional pKi (fpKi), antagonism [2]
CC(=O)c1ccc(N2CC[C@H](C(=O)N3CCN(C(C)C)CC3)C2)cc1 [Example E2, 1-[4-((3S)-3-{[4-(1-Methylethyl)-1-piperazinyl]carbonyl}-1-pyrrolidinyl)phenyl]ethanone] | > 8.0 | < 6.5
CCc1noc(-c2ccc(N3CC[C@H](C(=O)N4CCN(C(C)C)CC4)C3)cc2)n1.Cl [Example E49, 1-({(3S)-1-[4-(3-Ethyl-1,2,4-oxadiazol-5-yl)phenyl]-3-pyrrolidinyl}carbonyl)-4-(1-methylethyl)piperazine hydrochloride] | > 8.0 | < 6.5
Cc1ncc(-c2ccc(N3CC[C@H](C(=O)N4CCN(C(C)C)CC4)C3)cc2)o1 [Example E34, 1-(1-Methylethyl)-4-({(3S)-1-[4-(2-methyl-1,3-oxazol-5-yl)phenyl]-3-pyrrolidinyl}carbonyl)piperazine] | > 8.0 | < 6.5
CC(C)N1CCCN(C(=O)[C@H]2CCN(c3ccc(C(F)(F)F)nc3)C2)CC1.Cl [Example E26, 1-(1-Methylethyl)-4-({(3S)-1-[6-(trifluoromethyl)-3-pyridinyl]-3-pyrrolidinyl}carbonyl)hexahydro-1H-1,4-diazepine hydrochloride] | > 8.0 | < 6.5
Cc1noc(-c2ccc(N3CC[C@H](C(=O)N4CCN(C5CCC5)CC4)C3)cc2)n1 [Example E13, 1-Cyclobutyl-4-({(3S)-1-[4-(3-methyl-1,2,4-oxadiazol-5-yl)phenyl]-3-pyrrolidinyl}carbonyl)piperazine] | > 8.0 | < 6.5
CC(=O)c1ccc(N2CC[C@H](C(=O)N3CCN(C(C)C)[C@@H](C)C3)C2)cc1 [Example E5, 1-[4-((3S)-3-{[(3S)-3-Methyl-4-(1-methylethyl)-1-piperazinyl]carbonyl}-1-pyrrolidinyl)phenyl]ethanone] | > 8.0 | < 6.5
CC(C)N1CCN(C(=O)[C@H]2CCN(c3ccc(N4CCCC4=O)cc3)C2)CC1 [Example E45, 1-[4-((3S)-3-{[4-(1-methylethyl)-1-piperazinyl]carbonyl}-1-pyrrolidinyl)phenyl]-2-pyrrolidinone] | > 8.0 | < 6.5
CC(C)N1CCN(C(=O)[C@H]2CCN(c3ccc(C(F)(F)F)nc3)C2)CC1 [Example E1, 1-(1-Methylethyl)-4-({(3S)-1-[6-(trifluoromethyl)-3-pyridinyl]-3-pyrrolidinyl}carbonyl)piperazine] | > 8.0 | < 6.5
Cc1cn(-c2ccc(N3CC[C@H](C(=O)N4CCN(C(C)C)CC4)C3)cc2)cn1 [Example E55, 1-(1-Methylethyl)-4-({(3S)-1-[4-(4-methyl-1H-imidazol-1-yl)phenyl]-3-pyrrolidinyl}carbonyl)piperazine dihydrochloride] | > 8.0 | < 6.5
Cc1noc(-c2ccc(N3CC[C@H](C(=O)N4CCN(CC5CC5)CC4)C3)cc2)n1 [Example E16, 1-(Cyclopropylmethyl)-4-({(3S)-1-[4-(3-methyl-1,2,4-oxadiazol-5-yl)phenyl]-3-pyrrolidinyl}carbonyl)piperazine] | > 8.0 | < 6.5
Cc1noc(-c2ccc(N3CC[C@H](C(=O)N4CCN(C(C)C)CC4)C3)cc2)n1 [Example E3, 1-(1-Methylethyl)-4-({(3S)-1-[4-(3-methyl-1,2,4-oxadiazol-5-yl)phenyl]-3-pyrrolidinyl}carbonyl)piperazine] | > 8.0 | < 6.5
Cc1noc(-c2ccc(N3CC[C@H](C(=O)N4CCCN(CC5CC5)CC4)C3)cc2)n1 [Example E11, 1-(Cyclopropylmethyl)-4-({(3S)-1-[4-(3-methyl-1,2,4-oxadiazol-5-yl)phenyl]-3-pyrrolidinyl}carbonyl)hexahydro-1H-1,4-diazepine] | > 8.0 | < 6.5
CCC(CC)N1CCN(C(=O)[C@H]2CCN(c3ccc(C(F)(F)F)nc3)C2)CC1 [Example E7, 1-(1-Ethylpropyl)-4-({(3S)-1-[6-(trifluoromethyl)-3-pyridinyl]-3-pyrrolidinyl}carbonyl)piperazine] | > 8.0 | < 6.5
CC(C)N1CCN(C(=O)[C@H]2CCN(c3ccc(-c4cnco4)cc3)C2)CC1 [Example E44, 1-(1-methylethyl)-4-({(3S)-1-[4-(1,3-oxazol-5-yl)phenyl]-3-pyrrolidinyl}carbonyl)piperazine] | > 8.0 | < 6.5
CC(C)N1CCN(C(=O)[C@H]2CCN(c3ccc(C#N)cc3)C2)C[C@@H]1C.Cl [Example E57, 4-((3S)-3-{[(3S)-3-Methyl-4-(1-methylethyl)-1-piperazinyl]carbonyl}-1-pyrrolidinyl)benzonitrile hydrochloride] | > 8.0 | < 6.5
Cl.O=C(C1CCN(c2ccnc(C(F)(F)F)c2)C1)N1CCCN(C2CCC2)CC1 (racemic) [Example E23, (R,S)-1-Cyclobutyl-4-({1-[2-(trifluoromethyl)-4-pyridinyl]-3-pyrrolidinyl}carbonyl)hexahydro-1H-1,4-diazepine hydrochloride] | > 8.0 | < 6.5
Cc1noc(-c2ccc(N3CC[C@H](C(=O)N4CCN(C(C)C)CC4)C3)cn2)n1.Cl [Example E54, 1-(1-Methylethyl)-4-({(3S)-1-[6-(3-methyl-1,2,4-oxadiazol-5-yl)-3-pyridinyl]-3-pyrrolidinyl}carbonyl)piperazine hydrochloride] | > 8.0 | < 6.5
CC(C)N1CCN(C(=O)[C@H]2CCN(c3ccc(-c4nnc(-c5ccccc5)o4)cc3)C2)CC1 [Example E40, 1-(1-Methylethyl)-4-({(3S)-1-[4-(5-phenyl-1,3,4-oxadiazol-2-yl)phenyl]-3-pyrrolidinyl}carbonyl)piperazine] | > 8.0 | < 6.5
CC(=O)c1ccc(N2CC[C@H](C(=O)N3CCCN(CC4CC4)CC3)C2)cc1 [Example E10, 1-[4-((3S)-3-{[4-(Cyclopropylmethyl)hexahydro-1H-1,4-diazepin-1-yl]carbonyl}-1-pyrrolidinyl)phenyl]ethanone] | > 8.0 | < 6.5
